The values that follow come from the supplement of paper PMC10373366.

Structures can show the parent of a compound that is named as a salt. Some of the results follow. Most values come without repeats; read them as rough.

This test has as its system patient-derived ovarian cancer cells (PDC). The experiment in a line: cell growth inhibition ratio vs untreated control (CCK8); higher = stronger inhibition of cell viability. To be noted: 10 µM; 48 h. As to the method: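 Natural product library (Topscience) screened at 10 µM final concentration for 48 h on ovarian cancer A2780 cells and patient-derived ovarian cancer cells (PDC) in 96-well plates; viability read by CCK8 and reported as inhibition ratio (%) relative to untreated control. Single-dose primary screen.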
For the compound `O=C1O[C@H]([C@@H](O)CO)C(O)=C1O` [L(+)-Ascorbic acid], the “cell growth inhibition ratio” value is 2.06%.

On to `CC1(C)CC[C@]2(C(=O)O)CC[C@]3(C)C(=CC[C@@H]4[C@@]5(C)CC[C@H](O)[C@@](C)(CO)[C@@H]5CC[C@]43C)[C@@H]2C1` [Hederagenin], for which the “cell growth inhibition ratio” value was -13.3%.

As for `N[C@@H](Cc1cc(I)c(O)c(I)c1)C(=O)O` [3,5-Diiodotyrosine Dihydrate], the “cell growth inhibition ratio” value was -12%.

Consider `COc1cc(C(=S)N2CCOCC2)ccc1O` [Vanitiolide], for which the “cell growth inhibition ratio” value is 1.12%.

`CC(=O)Oc1c(C)c(C)c2c(c1C)CCC(C)(CCC[C@H](C)CCC[C@H](C)CCCC(C)C)O2` (some centres undefined) [Vitamin E Acetate]: the “cell growth inhibition ratio” value is 8.31%.

As for `NC(N)=O`, the “cell growth inhibition ratio” value was -6.3%.

As to `C[C@@]12CC[C@@H]3[C@@](CC[C@H]4[C@@]3(C)CCC[C@@]4(C)C(=O)O)(CC1=O)C2` [Isosteviol], the “cell growth inhibition ratio” value is -6.16%.

Turning to `CC1(C)[C@@H](O[C@H]2O[C@H](C(=O)O)[C@@H](O)[C@H](O)[C@H]2O[C@@H]2O[C@H](C(=O)O)[C@@H](O)[C@H](O)[C@H]2O)CC[C@]2(C)[C@H]3C(=O)C=C4[C@@H]5C[C@@](C)(C(=O)O)CC[C@]5(C)CC[C@@]4(C)[C@]3(C)CC[C@@H]12` [Monoammonium glycyrrhizinate], the “cell growth inhibition ratio” value was 3.67%.

As to `COc1cc(C=O)ccc1OC(C)=O` [Acetylvanillin], the “cell growth inhibition ratio” value was found to be 5.85%.

For the compound `C[C@H]1COC2=C1C(=O)C(=O)c1c2ccc2c1CCCC2(C)C` [Cryptotanshinone], the “cell growth inhibition ratio” value stood at 18.6%.

As to `NC(=O)c1ccc[n+]([C@@H]2O[C@H](COP(=O)([O-])OP(=O)(O)OC[C@H]3O[C@@H](n4cnc5c(N)ncnc54)[C@H](O)[C@@H]3O)[C@@H](O)[C@H]2O)c1` [Cozymasei(NAD+)], the “cell growth inhibition ratio” value was -16.8%.

Take `O=C(O[C@@H]1Cc2c(O)cc(O)cc2O[C@@H]1c1ccc(O)c(O)c1)c1cc(O)c(O)c(O)c1` [(-)-Epicatechin gallate]: the “cell growth inhibition ratio” value was -5.39%.

In the case of `O=C(O)[C@H]1O[C@@H](Oc2cc3oc(-c4ccc(O)cc4)cc(=O)c3c(O)c2O)[C@H](O)[C@@H](O)[C@@H]1O` [Breviscapin], the “cell growth inhibition ratio” value came to 8.25%.

For `C[C@]12CC[C@@H]3c4ccc(O)cc4CC[C@H]3[C@@H]1C[C@@H](O)[C@@H]2O` [Estriol], the “cell growth inhibition ratio” value is -47.3%.

Take `COC(=O)C1=CO[C@@H](O[C@@H]2O[C@H](CO)[C@@H](O)[C@H](O)[C@H]2O)[C@@H]2C(CO)=CC[C@H]12` [Geniposide]: the “cell growth inhibition ratio” value is 2.35%.

In the case of `NC[C@H]1O[C@H](O[C@H]2[C@H](O)[C@@H](O[C@H]3O[C@H](CO)[C@@H](O)[C@H](N)[C@H]3O)[C@H](N)C[C@@H]2N)[C@H](N)C[C@@H]1O` [Tobramycin], the “cell growth inhibition ratio” value is -7.7%.

As for `OC[C@H]1O[C@@H](Oc2c(O)cc(O)cc2/C=C/c2ccc(O)cc2)[C@H](O)[C@@H](O)[C@@H]1O` [Astragalus polyphenols], the “cell growth inhibition ratio” value was -11.6%.

For the compound `O=C(CCc1ccc(O)cc1)c1c(O)cc(O)cc1O` [Phloretin], the “cell growth inhibition ratio” value turned out to be 13.5%.

`CC(C)(O[C@@H]1O[C@H](CO)[C@@H](O)[C@H](O)[C@H]1O)[C@H]1Cc2cc3ccc(=O)oc3cc2O1` [Nodakenin]: the “cell growth inhibition ratio” value is 0.757%.

`OC[C@H]1O[C@@](CO)(O[C@H]2O[C@H](CO)[C@@H](O)[C@H](O)[C@H]2O)[C@@H](O[C@H]2O[C@H](CO)[C@@H](O)[C@H](O)[C@H]2O)[C@@H]1O` [Melezitose]: the “cell growth inhibition ratio” value is -21.4%.

Turning to `CCCCCCCCCCCC1=C(O)C(=O)C=C(O)C1=O` [Embelin], the “cell growth inhibition ratio” value was found to be 9.33%.

Consider `O=C(O)C1=CO[C@@H](O[C@@H]2O[C@H](CO)[C@@H](O)[C@H](O)[C@H]2O)[C@@H]2C(CO)=CC[C@H]12` [Geniposidic Acid], for which the “cell growth inhibition ratio” value is -11.2%.

Consider `C=C1CC[C@@H]2[C@](C)(COC(=O)CCC(=O)O)[C@H](OC(=O)CCC(=O)O)CC[C@@]2(C)[C@@H]1/C=C/C1=CCOC1=O` [Dehydroandrographolide Succinate Potasium Salt], for which the “cell growth inhibition ratio” value amounted to 9.48%.

Consider `C=C1C[C@@]2(O)O[C@@]3(C[C@H]2C(C)C)[C@@H](C)CC[C@@H]13` [Curcumol], for which the “cell growth inhibition ratio” value was -1.04%.

As for `c1coc(CNc2ncnc3[nH]cnc23)c1` [Kinetin], the “cell growth inhibition ratio” value was -1.35%.

Regarding `C[C@@H]1O[C@@H](Oc2c(-c3cc(O)c(O)c(O)c3)oc3cc(O)cc(O)c3c2=O)[C@H](O)[C@H](O)[C@H]1O` [Myricetrin], the “cell growth inhibition ratio” value was -19.9%.

As for `C1CCN2C[C@@H]3C[C@@H](CN4CCCC[C@@H]34)[C@H]2C1` [(-)-Sparteine sulfate pentahydrate], the “cell growth inhibition ratio” value was -2.76%.

For the compound `COC(=O)[C@@H]1[C@H]2C[C@H]3c4[nH]c5ccccc5c4CCN3C[C@@H]2CC[C@@H]1O` [Yohimbine hydrochloride], the “cell growth inhibition ratio” value worked out at 7.47%.

As to `C=C[C@H]1CN2CC[C@H]1C[C@H]2[C@H](O)c1ccnc2ccc(OC)cc12` [Quinine], the “cell growth inhibition ratio” value was -4.42%.

As to `C=CCSC[C@H](N)C(=O)O` [S-allyl-L-cysteine], the “cell growth inhibition ratio” value is 1.72%.

For `CC1(C)CC[C@]2(C(=O)O[C@@H]3O[C@H](CO[C@@H]4O[C@H](CO)[C@@H](O)[C@H](O)[C@H]4O)[C@@H](O)[C@H](O)[C@H]3O)CC[C@]3(C)C(=CC[C@@H]4[C@@]5(C)CC[C@H](O[C@@H]6OC[C@H](O)[C@H](O)[C@H]6O)[C@@](C)(CO)[C@@H]5CC[C@]43C)[C@@H]2C1` [Asperosaponin Ⅵ], the “cell growth inhibition ratio” value is -4.51%.

`CC[C@H](CC[C@@H](C)[C@H]1CC[C@H]2[C@@H]3CC=C4C[C@@H](O)CC[C@]4(C)[C@H]3CC[C@]12C)C(C)C` [Beta-Sitosterol]: the “cell growth inhibition ratio” value was 2.04%.

For the compound `CC(C)CCCCC(=O)N[C@@H](CCN)C(=O)N[C@@H](CN[C@@H](CCN)C(=O)N[C@H]1CCNC(=O)[C@H]([C@@H](C)O)NC(=O)[C@H](CCN)NC(=O)[C@H](CCN)NC(=O)[C@H](CC(C)C)NC(=O)[C@@H](CC(C)C)NC(=O)[C@H](CCN)NC1=O)[C@@H](C)O.CCC(C)CCCCC(=O)N[C@@H](CCN)C(=O)N[C@@H](CN[C@@H](CCN)C(=O)N[C@H]1CCNC(=O)[C@H]([C@@H](C)O)NC(=O)[C@H](CCN)NC(=O)[C@H](CCN)NC(=O)[C@H](CC(C)C)NC(=O)[C@@H](CC(C)C)NC(=O)[C@H](CCN)NC1=O)[C@@H](C)O` (some centres undefined) [Colistin sulfate], the “cell growth inhibition ratio” value is -10.1%.

Regarding `CC(=O)OC/C=C(C)/C=C/C=C(C)/C=C/C1=C(C)CCCC1(C)C` [Retinyl acetate], the “cell growth inhibition ratio” value worked out at 14.9%.

Consider `COc1cc(C=O)ccc1O` [Vanillin], for which the “cell growth inhibition ratio” value was found to be 8.89%.

For the compound `N[C@@H](Cc1c[nH]c2ccc(O)cc12)C(=O)O` [L-5-Hydroxytryptophan], the “cell growth inhibition ratio” value was 1%.

In the case of `CC(C)c1cccc(O)c(=O)c1` [β-thujaplicin], the “cell growth inhibition ratio” value was 29.8%.

Consider `COC(=O)c1cc(OC)c(OC)c(OC)c1` [Methyl EudesMate], for which the “cell growth inhibition ratio” value amounted to 5.81%.

Regarding `COC(=O)c1c2c(c3ccccc3c1O)OC(C)(C)C=C2` [Mollugin], the “cell growth inhibition ratio” value amounted to 26.9%.
